Results published in paper PMC11178898, “A clade of receptor-like cytoplasmic kinases and 14-3-3 proteins coordinate inositol hexaphosphate accumulation” (Nature Communications, 2024).
These are yes or no findings as the source states them, for the method shown. Binding seen in cells or lysates may run through a third protein. Some entries that bind do so weakly or less than the wild type. Sequences can lack the tags named with a protein.

Key:
[1] = molecular target: T1, GRF4, BiFC fusion (Arabidopsis thaliana) (UniProt P46077); assay: split reporter; BiFC; constructs transiently expressed in Arabidopsis mesophyll protoplasts, confocal imaging
T1 sequence: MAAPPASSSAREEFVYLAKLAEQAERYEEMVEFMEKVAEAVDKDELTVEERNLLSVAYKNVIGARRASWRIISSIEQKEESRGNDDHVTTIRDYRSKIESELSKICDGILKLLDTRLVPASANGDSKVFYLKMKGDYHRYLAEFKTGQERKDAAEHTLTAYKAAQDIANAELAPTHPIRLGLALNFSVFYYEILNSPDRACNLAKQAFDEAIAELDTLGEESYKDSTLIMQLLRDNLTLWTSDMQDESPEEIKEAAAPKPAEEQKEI

[2] = molecular target: T2, GRF4, Split-LUC fusion (Arabidopsis thaliana) (UniProt P46077); assay: split reporter; Split-LUC; X-nLUC and X-cLUC constructs co-infiltrated into tobacco leaves, LUC activity with D-luciferin; in Figs. 5a, 6f, 7c with or without IPCK1
T2 sequence: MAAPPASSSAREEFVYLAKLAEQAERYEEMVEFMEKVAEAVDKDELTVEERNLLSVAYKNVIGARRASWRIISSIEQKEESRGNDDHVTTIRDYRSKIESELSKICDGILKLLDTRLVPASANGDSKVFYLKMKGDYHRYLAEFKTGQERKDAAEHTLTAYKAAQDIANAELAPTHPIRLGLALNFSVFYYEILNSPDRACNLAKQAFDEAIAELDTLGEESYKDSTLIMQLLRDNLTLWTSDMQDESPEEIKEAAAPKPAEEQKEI

B1: IPK1, BiFC fusion (protein, UniProt Q93YN9 1-451)
chain: MEMILEEKDASDWIYRGEGGANLVLAYAGSSPLFVGKVIRIQKARRNDKAIKNANGVVSVLTSDEQHLWRENNELISSPNKEVLEQRYVKNVIIPLLGPKHVDAGVRVSVSKEFLECVDKKVTKQRPLWRVNAANVDTSHDSALILNDHSLFSQGISSGGDCISVEIKPKCGFLPTSRFIGKENMLKTSVSRFKMHQLLKLEYNEISEESEYDPLDLFSGSKESVLEAIKALYSTPQNNFRVFLNGSLILGGSGESTGRTSPEIGYAFEDALKGFIQSEDGHRTECFLQLVSDAVYGSGVLDRLLEIQKLDKLDIEGAIHSYYDLINQPCPICKEGKPLEAELSLHALPLDESLKIVKEYLIAATAKDCSIMISFQSRNAWDSEPSGDYVSLKPTNQTFDYKVHFIDLSLKPLKRMESYYKLDKKIISFYNRKQKAENTAEQIGNSKPSHS
[1]
  binding: binds

B2: PI-PLC2, BiFC fusion (protein, UniProt Q39033 1-581)
chain: MSKQTYKVCFCFRRRFRYTASEAPREIKTIFEKYSENGVMTVDHLHRFLIDVQKQDKATREDAQSIINSASSLLHRNGLHLDAFFKYLFGDNNPPLALHKVHHDMDAPISHYFIFTGHNSYLTGNQLSSDCSEVPIIDALKKGVRVIELDIWPNSNKDDIDVLHGMTLTTPVGLIKCLKAIRAHAFDVSDYPVVVTLEDHLTPDLQSKVAEMVTEIFGEILFTPPVGESLKEFPSPNSLKRRIIISTKPPKEYKEGKDVEVVQKGKDLGDEEVWGREVPSFIQRNKSEAKDDLDGNDDDDDDDDEDKSKINAPPQYKHLIAIHAGKPKGGITECLKVDPDKVRRLSLSEEQLEKAAEKYAKQIVRFTQHNLLRIYPKGTRVTSSNYNPLVGWSHGAQMVAFNMQGYGRSLWLMQGMFRANGGCGYIKKPDLLLKSGSDSDIFDPKATLPVKTTLRVTVYMGEGWYFDFRHTHFDQYSPPDFYTRVGIAGVPGDTVMKKTKTLEDNWIPAWDEVFEFPLTVPELALLRLEVHEYDMSEKDDFGGQTCLPVWELSEGIRAFPLHSRKGEKYKSVKLLVKVEFV
[1]
  binding: binds

B3: IPK1, Split-LUC fusion (protein, UniProt Q93YN9 1-451)
chain: MEMILEEKDASDWIYRGEGGANLVLAYAGSSPLFVGKVIRIQKARRNDKAIKNANGVVSVLTSDEQHLWRENNELISSPNKEVLEQRYVKNVIIPLLGPKHVDAGVRVSVSKEFLECVDKKVTKQRPLWRVNAANVDTSHDSALILNDHSLFSQGISSGGDCISVEIKPKCGFLPTSRFIGKENMLKTSVSRFKMHQLLKLEYNEISEESEYDPLDLFSGSKESVLEAIKALYSTPQNNFRVFLNGSLILGGSGESTGRTSPEIGYAFEDALKGFIQSEDGHRTECFLQLVSDAVYGSGVLDRLLEIQKLDKLDIEGAIHSYYDLINQPCPICKEGKPLEAELSLHALPLDESLKIVKEYLIAATAKDCSIMISFQSRNAWDSEPSGDYVSLKPTNQTFDYKVHFIDLSLKPLKRMESYYKLDKKIISFYNRKQKAENTAEQIGNSKPSHS
[2]
  binding: binds

B4: PI-PLC2, Split-LUC fusion (protein, UniProt Q39033 1-581)
chain: MSKQTYKVCFCFRRRFRYTASEAPREIKTIFEKYSENGVMTVDHLHRFLIDVQKQDKATREDAQSIINSASSLLHRNGLHLDAFFKYLFGDNNPPLALHKVHHDMDAPISHYFIFTGHNSYLTGNQLSSDCSEVPIIDALKKGVRVIELDIWPNSNKDDIDVLHGMTLTTPVGLIKCLKAIRAHAFDVSDYPVVVTLEDHLTPDLQSKVAEMVTEIFGEILFTPPVGESLKEFPSPNSLKRRIIISTKPPKEYKEGKDVEVVQKGKDLGDEEVWGREVPSFIQRNKSEAKDDLDGNDDDDDDDDEDKSKINAPPQYKHLIAIHAGKPKGGITECLKVDPDKVRRLSLSEEQLEKAAEKYAKQIVRFTQHNLLRIYPKGTRVTSSNYNPLVGWSHGAQMVAFNMQGYGRSLWLMQGMFRANGGCGYIKKPDLLLKSGSDSDIFDPKATLPVKTTLRVTVYMGEGWYFDFRHTHFDQYSPPDFYTRVGIAGVPGDTVMKKTKTLEDNWIPAWDEVFEFPLTVPELALLRLEVHEYDMSEKDDFGGQTCLPVWELSEGIRAFPLHSRKGEKYKSVKLLVKVEFV
[2]
  binding: binds
